Among the data in PubChem BioAssay AID1508600 (Functional Genomics Laboratory (NCATS/FGL), 2020) are z-score values, retold here.

About 3,700 (7%) of roughly 53,000 sequences were called active.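 Rule for the calls: active = gene knockdowns whose robust z-score for IL-1 alpha signal is at least 2 or at most -2, so actives lie on both sides; inactive = the rest.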 The list shows a part of the results.

The test can be described thus: Components of the Cytosolic LPS Sensing Pathway: Gene Identification via Genome-wide siRNA Screen. Conditions: RAW264.7 macrophages, IL-1a HTRF, actives lie on both sides, screened at 100 nM (by protocol), cells primed 5 h with Pam3CSK4 first. From the text: Non-canonical inflammasome activation by cytosolic LPS is a critical component of the host response to Gram-negative bacterial infection, however we lack a comprehensive understanding of the cellular processes that control this pathway. Here we describe a genome-wide siRNA screen to identify genes regulating the mouse macrophage IL-1 alpha response to cytosolic LPS.
RAW264.7 cells were maintained in complete DMEM media, comprising DMEM with 4.5 g/L glucose, 10% FBS (Gemini Bio-Products, West Sacramento, CA), 2 mM Glutamine (Lonza) and 20 mM HEPES (Lonza), hereafter complete DMEM.
The RNAi screen was conducted in 384-well format using the Ambion Silencer Mouse Genome siRNA Library (#4391425), which consists of three unique, nonoverlapping, nonpooled siRNAs for each of 17,000 gene targets. siRNA reagents ([…]) were stamped into 384-well white flat-bottom microplates (Corning, 3570) using a Velocity11 VPrep liquid handling system (Agilent) integrated into a BioCel robotic platform (Agilent) in columns 1-22, leaving columns 23-24 empty for negative (Ambion, Negative control #1) and positive (mouse Casp4) controls, respectively. The median value of each plate's negative control column was used to normalize sample wells, and the positive control was used to assess transfection efficiency and assay performance.
Lipofectamine RNAiMAX Transfection Reagent ([…]; Invitrogen) was added in […] serum-free, antibiotic-free media to plate wells using a Thermo Scientific Matrix WellMate and Microplate Stacker. Plates were incubated for 45 min at room temperature to allow for the sufficient formation of siRNA-lipid complexes. Cells were seeded at a density of 1x10^4 cells per well in 20 microL media containing 20% (vol/vol) FBS without antibiotics. The final concentration of siRNA in each well was 100 nM. Cells were cultured for 48h at 37 degrees C in 5% CO2 before addition of […] of TLR ligand Pam3CSK4 for 5 hours. The medium was then removed, replaced with […] growth media and cell were transfected with […] of LipidA and TransIT-TKO (Mirus) for 24 hour. At the end of the LipidA treatment, […] of supernatant was transferred to a 384 Greiner Bio-one non-binding low volume plate and […] of IL-1a HTRF reagent (Cisbio, 62MIL1APEH) was added and incubated at room temperature overnight. The plates were read on an EnVision plate reader (PerkinElmer). Cell viability was measured by adding 20ul Cell Titer Glo to the original plate and running a luminescence read on the EnVision. The quantified IL-1a signal for each siRNA gene-targeted well was divided by the median of the negative control wells and multiplied by 100 to achieve a negative control normalized value for each well/siRNA. This normalized value was then used to generate a robust z-score by first taking the log of each value and then by subtracting the median and dividing by the […].
Turning to GGGACUCGGGCAGUAUUCATT against Tgm5, the z-score was inactive: -0.185.
Consider GCUUGGUCGUAUAUUGUUGTT against Slc9c1, for which the z-score was inactive: 1.57.
The value for GGCCUAUGAAAAGUGGCGUTT against Dpysl3 was inactive: 0.297; that for GGAAUGCUACUGCUCUCCUTT against Qrfp was inactive: -1.65; that for GGAAGUUCAAGACAUUGUUTT against Rabgef1 was inactive: 0.784.
As for GGAAAAACUGAAACAGUUUTT against Eif3a, the figure is inactive: 1.06; as for CCUUUCGGACAAAAUAUGUTT against Vnn3, inactive: 0.0615; as for GGAGACUGAGGAAGAAUCUTT against Atcay, inactive: -0.302.
Turning to CCUCAAAGAUUAAUUCCGGTT against Acap2, the z-score was inactive: -1.38.
Take GGAGUUUGACUCAAUAUCATT against Napb: the z-score was inactive: 1.24.
Take GCAACUUUAGCAACUGCCCTT against Cc2d1b: the z-score was inactive: 0.856.
As to GGCAUCCAAUCCUGUGGAGTT against Bcl11a, the z-score was inactive: -0.62.
For GCGAAAAAUUCGGCAGCAGTT against Arglu1, the z-score is inactive: -0.199.
As for GGCAGUCAGACUUAGAGACTT against Dqx1, the figure is inactive: 0.488; as for GGUACAGGAAACUCAAAUATT against Lrrc4, inactive: 0.318; as for GGCAUUCCCUGAAUAUCGUTT against Gpx2, inactive: -0.91.
As for CCGUUUAACUUGGGCUGAUTT against Reg1, the figure is inactive: -0.942; as for GGUGUUGAAAUCGGUUUCCTT against Ube2v1, inactive: -0.302; as for CUCCUUGUCUACCUGAAUATT against Vmn1r213, inactive: -1.44.
With GCAAGACCAGUGGAGUGGUTT against Sncb, the z-score is inactive: -0.16.
The value for GGCACUGAUGAUUAAGCUUTT against Gale was inactive: -0.271; that for GGAGUUAAUUGCCCGCAACTT against Rab19 was inactive: 0.588; that for GGGUUUCUUCCUUGUCAGATT against Abcc3 was inactive: -1.79.
The value for GGAGCUUGCCUGAUUUUGCTT against Rfx1 was inactive: -0.118.
As for GGCUGCCUAUCCCUAAACUTT against Cpt2, the figure is inactive: -0.625.
As for CGUGGUUCUUCGAGUAGAUTT against Srsf5, the z-score is inactive: 1.35.
As for CCUCGUUCAUACGACAGAATT against Cep135, the figure is inactive: 0.234.
In the case of GGAUUCAAAGUGUGCACAATT against Lrrc3b, the z-score is inactive: 1.04.
The value for GGACUUUCGAAGUAAGAUGTT against Tmem242 was inactive: -1.37; that for GGCAAUGGAGUUUCAAUUUTT against Stard5 was inactive: -0.0861.
In the case of CGAAGUGAAAAGUAUGACCTT against Lrrc72, the z-score is inactive: -0.083.
As for GGCAACAGACAAACAGCCGTT against Ugcg, the figure is inactive: -1.54; as for GGCUUUUGAAAAGUUCACATT against Rnf32, active: -2.05.
The value for GGAGCUUAAAGUGAGCGGCTT against Lage3 was inactive: -0.859.
On to GGAAACACCUUUGAGGCUCTT against Kndc1, for which the z-score was inactive: -1.88.
For the sequence CGAGAUAAACCAUACCUGGTT against Zfp61, the z-score was inactive: 1.72.
The value for CGCCCUUGGAGGUUAAUCATT against Nsg2 was inactive: 0.26; that for GCCUCUGAGAUAAAAUUUGTT against Klf6 was inactive: -1.53; that for “GGCUGUAUAAAUCAGAUUATT against 1600012H06Rik” was inactive: 1.37.
Regarding GGCGGUCAAAUACAAAAGGTT against Pde1a, the z-score was inactive: 0.553.
As to GCUGAGUGAUCGAUCUUAATT against Golt1a, the z-score is inactive: 1.95.
For the sequence CCUCAACUGGUUCCCUAACTT against Spatc1, the z-score is inactive: -1.73.
In the case of CCAGUUGGAAAUAUGACGATT against Fryl, the z-score is inactive: -0.184.
The value for GGGUUUGAGGAAGUUAAGATT against Slc5a3 was inactive: -0.555.
On to GCUCAAAGCUUAUGAUUUCTT against Commd2, for which the z-score was inactive: 0.334.
Turning to CCUCUGGUCUCUUAGAAAGTT against Fxn, the z-score was inactive: 0.163.
As for GGCUGAGGCUGUGAAGAAGTT against Igfbp5, the figure is inactive: -0.659.
As to GCUCUUAGGGAAGAAUAUUTT against Arnt, the z-score is inactive: -0.862.
As for GGCCAGAUAGCAAAACAGCTT against Mpst, the figure is inactive: 0.897; as for GGAAUUCGGUUUCAGCUUCTT against Hax1, inactive: -0.354; as for GGUAAAGUUGCUUAAUUAGTT against Msl3l2, inactive: 0.944.
Regarding GGAGAUUGAACAGUCAAACTT against Pex5, the z-score is active: 3.01.
The value for GGAUAUUGAUGCAUACUUUTT against Noc3l was inactive: 0.907; that for GGUUUGCUGAAUGUCAUUUTT against Magea2 was inactive: -1.54.
Consider GGUGUAUGGAUUUUAUGAUTT against Ppp6c, for which the z-score is inactive: -1.11.
On to CGGUAUCUCAACUUUUACATT against Stra8, for which the z-score was inactive: 0.685.
Take GGAUGAAACAAGUGAAGAUTT against Papola: the z-score is inactive: -1.07.
The value for GAAUGAACUGCUGAAAAAGTT against Klra16 was inactive: 0.462.
Turning to GCUUAUAGGCCUAUAUGCCTT against Inppl1, the z-score is inactive: -0.571.
Turning to CCUUAUUUCGAGCUGUGAATT against Smim8, the z-score is inactive: -1.15.
Consider GGGUUUGUGUUUAGUGAAUTT against Mindy3, for which the z-score is inactive: -1.89.
Regarding GGAUGACAUUUCAGUGUGGTT against Matn4, the z-score was inactive: 0.561.
As to GCCAGUGAUGGAAUUGUAATT against Rrm2b, the z-score was inactive: -0.457.
As for GGUGUUGUCUUACAUUAAUTT against Esam, the figure is inactive: -0.0651; as for GAAGAAGGAAAAAAACCCATT against Sec61b, inactive: -1.19; as for GGUGUUUGGGAAAGGUCUGTT against Trpm1, inactive: -1.33.
The value for GGACAACCAAAUUCUCAAGTT against Olfml3 was inactive: 0.377; that for GGAAUUUAAACUGAAGGAUTT against Fkbp9 was inactive: 0.271.
For the sequence GCCUCAAAAUGGCGGAACUTT against Casp8, the z-score is inactive: -0.249.
In the case of GGAAAUCUGAGUGUGCACUTT against Pcdhgb1, the z-score was inactive: 1.45.
Consider GGAUUUACCAAGUCUAUUGTT against Ccdc174, for which the z-score was inactive: 0.238.
The value for GGUUCUAUGCUGAAGGUCATT against Lhfpl2 was inactive: 0.358; that for GCCAAAUAUUAGCGCGAAGTT against Mgp was inactive: 0.888; that for CGGAACACCAAUAAGAGAATT against Hgd was inactive: -0.667.
As for GGAAAUCACCAUCCUUCGUTT against Map4k2, the figure is inactive: 0.443.
As for GGUCCCAGCUGUUAUAAGUTT against Foxi2, the figure is inactive: 0.861; as for GGACAAAACCUCAGUUGAUTT against Bves, inactive: 1.05; as for GCCCUGGUUCCUAACCAAUTT against Nudt12, inactive: 0.0896.
Regarding CCAUAAACAAUCACUUGUATT against Ccnf, the z-score is inactive: -0.953.
On to GGAUUGAAGAGCUUAACAATT against Mta1, for which the z-score is inactive: 0.155.
Regarding GCUCAAGAGUCUAACUCCCTT against Serinc4, the z-score was inactive: 0.558.
The value for GGGCUUCCUUCAGAAGAGUTT against Slc38a3 was inactive: 0.652; that for CCAGGGUAUAGUUUUCAACTT against Zfp940 was inactive: -0.41; that for GGCCGAAGAAGUCUUCGAUTT against Cavin4 was inactive: -0.0667.
As for GGACUAGAGAAAGUGUGCATT against Egf, the figure is inactive: 0.728; as for GGUUAUUUUUAGCUUCAGUTT against Lrpprc, inactive: -0.0769.
As for GGAAGAGGAGAGGAAGAAGTT against Dync1i1, the figure is inactive: 1.91.
Consider GGAGUGCGUCUUUGAGAAUTT against Fgf11, for which the z-score was inactive: -0.0446.
Take GCAUGUGGUACAGAUAGCUTT against Kif24: the z-score was inactive: 0.683.
Turning to CGUAUUGACAGUGGAAAUCTT against Gpr12, the z-score is inactive: 0.423.
Turning to GUCCGAGUAGGUGAUACAATT against Jaml, the z-score is inactive: 0.727.
As for GGAAACAACGGAUCCAAAATT against Plcb3, the figure is inactive: 1.33.
The value for GGGAUCCAAUCAAGAAGUATT against Lmcd1 was inactive: -1.01.
As for CCUUGAUUGAGCCUGACUUTT against Hook2, the figure is inactive: 0.543; as for GGAAAAAGAUGUCCUAUCUTT against Rufy2, inactive: -1.08.
As to CGGACAGUAUCACAAUCGUTT against Mrpl42, the z-score was inactive: 1.42.
The value for GCAGCAAUGGUUUAACACCTT against Smim14 was inactive: 0.431; that for GGUGAUAAAGGCUGGAGUGTT against Wnt9a was inactive: 0.0973.
GGGACAGAGAAUGAAGAUGTT against Tnfrsf21: the z-score is inactive: -1.04.
As for CCUACUCAUUUGAAUCAAGTT against Itih2, the figure is inactive: 1.8; as for GCCGCGUUUUGACUGAUCATT against Usp24, inactive: -1.82.
Consider GGUAUUUAUCUGAAUCUGATT against Dennd2c, for which the z-score is inactive: 0.668.
The value for CGAAGCCAUAAAUUUCAUATT against Aldh3a2 was inactive: 0.554.
The value for GCCUGUUGCUAUGAAUGGUTT against Zfp597 was inactive: -0.353; that for GGUGAAUAACUGCUCUAUCTT against Zp1 was inactive: -0.205; that for AUUUGGUUGCCUUACAACUTT against Olfr868 was inactive: -0.94.
As for GGCAUAGGAGGAUUCUCUUTT against Slc15a4, the figure is inactive: -0.536.
